The target of the experiment is deoxycholate (DOC)-insoluble fibronectin aggregates from primary rat astrocytes (rat (endogenous in primary astrocytes)) (UniProt P04937). The experiment is described as follows: co-sedimentation; DOC-insoluble fibronectin aggregates from deposits of activated rat astrocytes; SDS-PAGE under reducing conditions, in-gel trypsin digestion, LC-MS (LTQ Orbitrap XL), PEAKS; only proteins known or predicted to be secreted were kept.

The chains behind the UniProt entries cited, without tags or fusion partners. Where a name states a change or a piece, a line headed by the entry shows the natural chain unless it says otherwise. Residues count along the entry.
UniProt P04937, residues 25-2477: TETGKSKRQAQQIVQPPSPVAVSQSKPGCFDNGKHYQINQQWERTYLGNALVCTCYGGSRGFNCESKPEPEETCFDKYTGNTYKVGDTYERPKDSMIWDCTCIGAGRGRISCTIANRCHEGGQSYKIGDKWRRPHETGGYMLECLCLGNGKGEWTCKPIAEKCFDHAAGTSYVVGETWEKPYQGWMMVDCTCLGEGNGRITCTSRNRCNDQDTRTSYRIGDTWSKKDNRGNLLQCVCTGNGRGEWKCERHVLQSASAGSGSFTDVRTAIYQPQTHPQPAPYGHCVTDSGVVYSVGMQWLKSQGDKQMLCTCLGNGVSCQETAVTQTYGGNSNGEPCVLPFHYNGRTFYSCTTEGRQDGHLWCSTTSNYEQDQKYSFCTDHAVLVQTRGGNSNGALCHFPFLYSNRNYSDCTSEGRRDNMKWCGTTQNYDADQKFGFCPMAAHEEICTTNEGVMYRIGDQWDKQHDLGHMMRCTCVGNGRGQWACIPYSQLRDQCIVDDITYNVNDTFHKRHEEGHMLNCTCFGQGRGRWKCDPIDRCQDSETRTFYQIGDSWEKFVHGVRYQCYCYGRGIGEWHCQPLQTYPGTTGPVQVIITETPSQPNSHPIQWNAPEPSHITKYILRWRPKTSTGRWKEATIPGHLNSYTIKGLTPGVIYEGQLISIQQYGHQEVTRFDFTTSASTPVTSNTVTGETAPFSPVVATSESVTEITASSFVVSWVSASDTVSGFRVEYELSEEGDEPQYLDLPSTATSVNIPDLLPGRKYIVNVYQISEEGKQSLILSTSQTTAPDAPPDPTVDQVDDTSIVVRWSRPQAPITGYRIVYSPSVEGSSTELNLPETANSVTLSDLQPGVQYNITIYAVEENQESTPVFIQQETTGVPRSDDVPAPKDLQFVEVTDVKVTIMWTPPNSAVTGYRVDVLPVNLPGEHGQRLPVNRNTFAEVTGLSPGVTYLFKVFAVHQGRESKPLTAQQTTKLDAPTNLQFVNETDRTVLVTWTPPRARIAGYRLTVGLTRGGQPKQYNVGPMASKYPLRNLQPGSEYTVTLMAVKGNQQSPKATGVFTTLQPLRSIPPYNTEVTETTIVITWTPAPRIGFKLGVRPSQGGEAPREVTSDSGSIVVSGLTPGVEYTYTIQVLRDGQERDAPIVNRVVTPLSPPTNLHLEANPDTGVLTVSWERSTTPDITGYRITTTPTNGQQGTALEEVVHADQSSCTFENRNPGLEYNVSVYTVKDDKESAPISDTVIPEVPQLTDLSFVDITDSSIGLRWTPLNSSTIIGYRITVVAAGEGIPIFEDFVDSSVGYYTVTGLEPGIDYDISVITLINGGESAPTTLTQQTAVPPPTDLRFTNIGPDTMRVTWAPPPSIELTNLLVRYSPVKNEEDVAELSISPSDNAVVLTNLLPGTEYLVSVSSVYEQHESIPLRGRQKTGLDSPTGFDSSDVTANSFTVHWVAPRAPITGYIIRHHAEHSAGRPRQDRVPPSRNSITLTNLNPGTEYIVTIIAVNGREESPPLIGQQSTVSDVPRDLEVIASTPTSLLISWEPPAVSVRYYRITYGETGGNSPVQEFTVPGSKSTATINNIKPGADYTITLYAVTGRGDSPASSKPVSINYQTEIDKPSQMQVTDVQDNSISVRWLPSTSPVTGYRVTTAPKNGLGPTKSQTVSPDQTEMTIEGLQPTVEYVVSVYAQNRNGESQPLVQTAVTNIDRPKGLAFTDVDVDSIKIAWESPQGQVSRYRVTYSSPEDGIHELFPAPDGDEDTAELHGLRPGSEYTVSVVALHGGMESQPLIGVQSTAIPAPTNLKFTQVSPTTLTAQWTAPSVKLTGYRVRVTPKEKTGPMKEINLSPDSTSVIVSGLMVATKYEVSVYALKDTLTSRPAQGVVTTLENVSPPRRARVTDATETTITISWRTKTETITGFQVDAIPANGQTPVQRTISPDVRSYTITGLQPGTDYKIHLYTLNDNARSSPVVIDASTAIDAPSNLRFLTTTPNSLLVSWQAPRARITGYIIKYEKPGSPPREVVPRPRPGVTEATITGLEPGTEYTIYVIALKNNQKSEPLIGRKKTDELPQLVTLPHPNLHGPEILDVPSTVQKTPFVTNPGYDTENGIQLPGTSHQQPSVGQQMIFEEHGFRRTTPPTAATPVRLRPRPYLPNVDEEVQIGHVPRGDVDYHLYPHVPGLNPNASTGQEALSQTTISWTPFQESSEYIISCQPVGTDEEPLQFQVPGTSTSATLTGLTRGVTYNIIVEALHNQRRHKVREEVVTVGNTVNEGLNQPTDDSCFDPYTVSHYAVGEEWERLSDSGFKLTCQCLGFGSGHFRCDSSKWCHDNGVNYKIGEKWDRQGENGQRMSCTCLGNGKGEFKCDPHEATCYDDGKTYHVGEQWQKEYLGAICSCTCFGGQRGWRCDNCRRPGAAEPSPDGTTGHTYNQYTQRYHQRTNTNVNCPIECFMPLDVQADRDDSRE
UniProt P08649: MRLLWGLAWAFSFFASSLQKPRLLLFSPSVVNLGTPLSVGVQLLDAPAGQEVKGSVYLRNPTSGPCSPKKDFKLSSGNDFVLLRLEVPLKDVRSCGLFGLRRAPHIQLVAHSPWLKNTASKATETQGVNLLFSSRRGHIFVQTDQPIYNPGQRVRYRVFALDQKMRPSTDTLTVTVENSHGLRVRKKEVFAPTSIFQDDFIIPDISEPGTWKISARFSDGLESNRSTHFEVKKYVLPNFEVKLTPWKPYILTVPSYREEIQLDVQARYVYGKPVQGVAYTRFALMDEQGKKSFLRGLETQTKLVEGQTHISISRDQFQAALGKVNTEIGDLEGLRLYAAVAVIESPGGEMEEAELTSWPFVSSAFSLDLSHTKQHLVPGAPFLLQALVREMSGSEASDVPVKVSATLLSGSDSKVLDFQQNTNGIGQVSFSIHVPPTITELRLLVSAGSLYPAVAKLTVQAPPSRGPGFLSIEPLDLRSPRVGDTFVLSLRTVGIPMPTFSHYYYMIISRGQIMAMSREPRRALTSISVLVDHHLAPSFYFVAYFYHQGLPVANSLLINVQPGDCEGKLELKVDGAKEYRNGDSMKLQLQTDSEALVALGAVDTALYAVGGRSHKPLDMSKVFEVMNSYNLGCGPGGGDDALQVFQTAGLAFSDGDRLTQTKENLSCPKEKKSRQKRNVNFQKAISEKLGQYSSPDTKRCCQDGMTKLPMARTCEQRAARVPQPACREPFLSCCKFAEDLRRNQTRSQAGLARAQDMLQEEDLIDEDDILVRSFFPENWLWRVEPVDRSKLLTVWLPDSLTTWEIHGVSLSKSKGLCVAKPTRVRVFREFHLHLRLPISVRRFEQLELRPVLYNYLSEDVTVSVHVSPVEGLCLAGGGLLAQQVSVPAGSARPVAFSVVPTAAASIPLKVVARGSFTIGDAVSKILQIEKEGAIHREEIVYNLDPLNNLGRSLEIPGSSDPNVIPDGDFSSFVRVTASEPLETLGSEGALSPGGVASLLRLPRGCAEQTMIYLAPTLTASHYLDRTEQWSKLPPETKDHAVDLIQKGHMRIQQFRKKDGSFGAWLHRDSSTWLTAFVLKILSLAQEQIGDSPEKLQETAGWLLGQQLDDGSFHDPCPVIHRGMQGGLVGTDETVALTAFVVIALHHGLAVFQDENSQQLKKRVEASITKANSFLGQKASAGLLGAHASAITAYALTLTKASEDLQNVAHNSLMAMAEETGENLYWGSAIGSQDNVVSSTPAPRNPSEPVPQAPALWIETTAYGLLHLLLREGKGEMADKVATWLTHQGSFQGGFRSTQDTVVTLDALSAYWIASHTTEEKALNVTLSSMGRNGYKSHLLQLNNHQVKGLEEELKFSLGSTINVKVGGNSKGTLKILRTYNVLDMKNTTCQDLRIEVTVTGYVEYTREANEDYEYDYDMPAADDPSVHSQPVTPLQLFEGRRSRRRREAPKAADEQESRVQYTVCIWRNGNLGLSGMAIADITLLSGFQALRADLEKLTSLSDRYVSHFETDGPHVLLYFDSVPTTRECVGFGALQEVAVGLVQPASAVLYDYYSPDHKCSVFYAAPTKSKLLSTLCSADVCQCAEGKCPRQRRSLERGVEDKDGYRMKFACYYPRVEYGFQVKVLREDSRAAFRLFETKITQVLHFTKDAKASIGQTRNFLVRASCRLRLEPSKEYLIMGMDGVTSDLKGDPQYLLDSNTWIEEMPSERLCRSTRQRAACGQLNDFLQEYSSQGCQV

No constants are given. Whether binding was seen depends on the method and setting. In cells and extracts the contact can be indirect. A result given as binding can be weak or reduced; the word gives no strength.

On to Complement C4B (from UniProt P08649), for which the binding result is on record as “binds”.

Source of the values: paper PMC6091019.
